{"source": "PubChem BioAssay AID485314", "about": "(National Center for Advancing Translational Sciences (NCATS), 2010)", "note": "Hit rate of the full screen: of about 340,000 compounds, about 4,500 (1.3%) were called active. Inconclusive means that the source gave no clear call. Such entries were picked first, then a sample of the others. The call rests on the fitted dose curve; in most records, active means well fitted inhibition curve with a large enough effect; inconclusive means small, poorly fitted or top-dose-only effect, or another doubt; inactive means no such curve, though single readings can be large or run the other way. A potency beside an inconclusive call is a rough fit, not a confirmed value. On the % scale 0 is the no-effect control and ±100 the full control effect; potency means the concentration at half of the fitted maximal effect."}
{"molecular_target": "DNA polymerase beta (Homo sapiens) (UniProt P06746)", "experiment": "qHTS Assay for Inhibitors of DNA Polymerase Beta", "settings": "Pol beta primer extension/strand displacement, fluorescence kinetic; activity change, negative = inhibition: at 114 µM (top of the series)", "outline": "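Homogeneous kinetic assay of primer extension and strand displacement by 10 nM Pol beta, preincubated 15 min at room temperature with compound before 50 nM substrate (final) was added. Read at 0 and 10 min; four-parameter Hill fit.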"}
{"molecule": "COc1ccc(CN2CCN(S(=O)(=O)c3ccccc3)CC2)c(OC)c1", "Potency": "inconclusive: 89.1 µM [inhibitor, single point]"}
{"molecule": "CN1Cc2c(N)cccc2C(c2ccccc2)C1", "note": "(stereo not drawn)", "Potency": "inconclusive: 89.1 µM [inhibitor, single point]"}
{"molecule": "O=C(c1ccc([N+](=O)[O-])s1)N1CCN(c2ccccn2)CC1", "Potency": "inconclusive: 89.1 µM [inhibitor, single point]"}
{"molecule": "CC(=O)Nc1cccc(C(=O)N/N=C/c2c[nH]c3ccccc23)c1", "Potency": "inconclusive: 39.8 µM [inhibitor, partial curve, poor fit]"}
{"molecule": "C=C(C)C(=O)O[C@H]1C/C(C)=C\\C(=O)/C=C(\\C)[C@H](O)[C@@H]2OC(=O)C(=C)[C@@H]21", "Potency": "inconclusive: 89.1 µM [inhibitor, single point]"}
{"molecule": "COc1ccc(-c2cc(-c3ccc(O)cc3)nc(N)c2C#N)cc1", "Potency": "inactive"}
{"molecule": "Oc1c(Br)cc(C=Nc2ccc3nc(-c4ccccc4)[nH]c3c2)c(O)c1Br", "Potency": "inconclusive: 89.1 µM [inhibitor, single point]"}
{"molecule": "O=C(Nc1ccc(Br)cc1)c1cc(-c2cccs2)on1", "Potency": "inconclusive: 20 µM [inhibitor, partial curve, poor fit]"}
{"molecule": "Cc1cc(C)cc(OCCSc2nc(-c3ccc(C(C)(C)C)cc3)nc3cc(=O)[nH]n23)c1", "Potency": "active: 22.4 µM"}
{"molecule": "Cc1ccc(C(=O)NC2(O)C(=O)c3ccccc3C2=O)cc1C", "Potency": "inactive"}
{"molecule": "O=C(O)COc1ccccc1/C=C1\\SC(=S)N(c2cccnc2)C1=O", "Potency": "inconclusive: 12.6 µM [inhibitor, full curve]"}
{"molecule": "CN1CCc2c(sc3nc(SCC(=O)NCc4ccco4)n(-c4ccccc4)c(=O)c23)C1", "Potency": "inactive"}
{"molecule": "O=C(c1cc(COc2ccc3c(c2)CCCC3)on1)N1CCCC1", "Potency": "inconclusive: 0.891 µM [inhibitor, full curve, poor fit]"}
{"molecule": "CCOc1ccc(C(=O)Nc2cc(C)ccn2)cc1", "Potency": "inactive"}
{"molecule": "COc1cccc(NC(=O)C2CCCN2S(=O)(=O)c2ccc3c(c2)n(C)c(=O)c(=O)n3C)c1", "note": "(stereo not drawn)", "activity change, negative = inhibition": "inconclusive: -39.2% [inhibitor]"}
{"molecule": "NC(=O)c1ccc2c(=O)n3c(-c4cc(Cl)c(N)c(Cl)c4)csc3nc2c1", "activity change, negative = inhibition": "inconclusive: -65.2% [inhibitor]"}
{"molecule": "C[N+]1(CC(=O)OC2CCCCCCCCCCC2)CCCC1", "Potency": "inactive"}
{"molecule": "Cc1ccccc1NC(=O)N1CCC(CN2CCCC2)CC1", "Potency": "inactive"}
{"molecule": "N#CC1=C2SCN(C3CCCCC3)CN2C(=O)CC1c1ccc(F)cc1", "note": "(stereo not drawn)", "Potency": "inactive"}
{"molecule": "O=C(COc1ncnc2ccccc12)N1CCN(S(=O)(=O)c2ccccc2)CC1", "Potency": "inconclusive: 89.1 µM [inhibitor, single point]"}
{"molecule": "CCCCNc1ccc(S(N)(=O)=O)cc1[N+](=O)[O-]", "Potency": "inconclusive: 0.141 µM [inhibitor, full curve, poor fit]"}
{"molecule": "Cc1cccc(C)c1NC(=O)Cc1cccs1", "Potency": "active: 39.8 µM"}
{"molecule": "CCc1cc2cc(C)cc(C)c2nc1SCC(=O)NNC(=O)c1ccco1", "Potency": "inconclusive: 70.8 µM [inhibitor, single point]"}
{"molecule": "CC(C)COc1ccc2[nH]c3c(c2c1)CCCC3=O", "Potency": "inconclusive: 25.1 µM [inhibitor, partial curve, poor fit]"}
{"molecule": "O=[N+]([O-])c1cc(C(F)(F)F)ccc1-n1nnc2ccccc21", "Potency": "inactive"}
{"molecule": "Cc1c2cnn(CC(=O)NCc3ccc(F)cc3)c(=O)c2c(C)n1Cc1ccccc1Cl", "Potency": "inconclusive: 15.8 µM [inhibitor, partial curve, poor fit]"}
{"molecule": "O=C(NCc1ccco1)c1cccn2c(=O)c3c4c(sc3nc12)CCCC4", "Potency": "active: 50.1 µM"}
{"molecule": "CN1Cc2c(N3CCOCC3)nc(SCCC#N)c(C#N)c2CC1(C)C", "Potency": "inactive"}
{"molecule": "Cc1ccc(NNC(=O)C2CCC2)cc1C", "Potency": "inactive"}
{"molecule": "COc1ccccc1CNC(=O)c1cc2cc(S(=O)(=O)N3CCCCC3)ccc2n1C", "Potency": "inconclusive: 89.1 µM [inhibitor, single point]"}
{"molecule": "CCOc1ccc(CCNC(=O)COC(=O)c2c(C)nn(-c3ccccc3)c2C)cc1OCC", "Potency": "inconclusive: 0.282 µM [inhibitor, full curve, poor fit]"}
{"molecule": "Cc1c(C(=O)Nc2ccccc2)cn2c(nc3ccccc32)c1C#N", "Potency": "inactive"}
{"molecule": "COc1cc(/C=N/NC(=O)c2cc(C3CC3)[nH]n2)cc(OC)c1OC", "activity change, negative = inhibition": "inconclusive: -49.9% [inhibitor]"}
{"molecule": "CCN(CCCCCCN)c1ccc2c(=O)[nH][nH]c(=O)c2c1", "Potency": "inactive"}
{"molecule": "O=C(NCCc1csc(-c2ccc(F)cc2)n1)C(=O)Nc1ccc(Cl)cc1", "Potency": "inconclusive: 79.4 µM [inhibitor, single point]"}
{"molecule": "O=C(Cn1cnc([N+](=O)[O-])n1)c1ccccc1", "Potency": "inconclusive: 89.1 µM [inhibitor, single point]"}
{"molecule": "Cc1cc(C)c2oc(C(=O)Nc3ccc(S(=O)(=O)Nc4nccs4)cc3)cc(=O)c2c1", "activity change, negative = inhibition": "inconclusive: -84.5% [inhibitor]"}
{"molecule": "COc1nnc(-c2ccc(N3CCCCC3)c(NC(=O)c3ccc(Cl)cc3)c2)c2ccccc12", "Potency": "inactive"}
{"molecule": "O=C(NC(NNc1ccc([N+](=O)[O-])cc1)(C(F)(F)F)C(F)(F)F)c1ccc(Cl)cc1", "Potency": "inactive"}
{"molecule": "CSc1cccc(NC(=O)/C=C/c2ccco2)c1", "Potency": "active: 31.6 µM"}
{"molecule": "Cc1ccc(S(=O)(=O)N2CCN(C(=O)/C=C/c3ccco3)CC2)cc1", "Potency": "active: 20 µM"}
{"molecule": "CCOC(=O)c1[nH]c(C)c(CCC(=O)NCc2ccc(OC(C)C)cc2)c1C", "Potency": "inactive"}
{"molecule": "Cc1cc(C)n(/N=C/c2ccco2)c(=O)c1C#N", "Potency": "active: 39.8 µM"}
{"molecule": "COc1ccc(NC(=O)c2ncoc2-c2ccco2)cc1Cl", "Potency": "inactive"}
{"molecule": "Cc1cccc(N=C2NC(=O)S/C2=C\\c2ccco2)c1", "Potency": "inconclusive: 15.8 µM [inhibitor, full curve]"}
{"molecule": "N=C1S/C(=C\\c2ccco2)C(=O)N1c1nccs1", "Potency": "inconclusive: 89.1 µM [inhibitor, single point]"}
{"molecule": "CCOc1ccc(/C=N/NC(=S)NC2CC3CCC2C3)cc1", "note": "(stereo not drawn)", "Potency": "inconclusive: 5.01 µM [inhibitor, single point]"}
{"molecule": "CCOC(=O)C1=C(C)NC(C)=C(C(=O)OCC)C1C(=O)O", "Potency": "inconclusive: 89.1 µM [inhibitor, single point]"}
